{"source": "PubChem BioAssay AID493014", "about": "(National Center for Advancing Translational Sciences (NCATS), 2011)", "note": "About 170 (0.05%) of roughly 340,000 compounds were called active. This list was built around the results that the source calls inconclusive (neither active nor inactive); the mix of calls is not that of the screen. Calls come from the whole dose curve; as a rule, active = well fitted inhibition curve with a large enough effect in the signal ratio, with a control signal flat (not every such curve was filed as active); inconclusive = small, poorly fitted or top-dose-only effect, or effect the other way, or a change in a side signal; inactive = flat fitted curve, though single readings scatter; the % refers to the signal ratio. Potencies of inconclusive entries are doubtful fits and often do not repeat. Potency is the fitted concentration of half-maximal effect.", "data": [{"assay": "qHTS Assay to Find Inhibitors of Chronic Active B-Cell Receptor Signaling;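 for activity change, negative = inhibition: plate controls were basal doxycycline-induced cells for no effect and cells given 10 µM MG132 for full effect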", "details": "ABC-DLBCL IkBa-CBG/CBR reporter, luminescence ratio (green luciferase fused to IkBa over red control in TMD8 lymphoma cells), 4 h; activity change, negative = inhibition: at 46.1 µM (top of the series)", "how_it_was_run": "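Concentration-response series (up to 46 uM) were applied to TMD8 dual-reporter cells for 4 h at 37C with doxycycline. Green/red ratio, after filter-overlap correction, defined %Activity; red signal alone was normalised to basal cells and zero luminescence.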", "values": [{"compound": "COCCC(=O)N1CCC(Oc2ccc(C(=O)NCCc3cn[nH]c3)cc2)CC1", "activity change, negative = inhibition": "inconclusive: 0.937%"}, {"compound": "CC(C)(C)C1CCc2c(sc3nc(SCC(=O)O)nc(N)c23)C1", "note": "(stereo not drawn)", "activity change, negative = inhibition": "inconclusive: 265%"}, {"compound": "Cc1[nH]c(=O)[nH]c(=O)c1S(=O)(=O)N1CCCC(C(=O)NCCc2ccc(Cl)cc2)C1", "note": "(stereo not drawn)", "activity change, negative = inhibition": "inconclusive: -7.48%"}, {"compound": "Cc1cccc(N2CCN(C(=O)CCn3c(=O)[nH]c4ccccc4c3=O)CC2)c1C", "activity change, negative = inhibition": "inconclusive: 5.66%"}, {"compound": "Cn1c(=O)c2c(nc(CN3CCN(C(=O)c4ccco4)CC3)n2CCCc2ccccc2)n(C)c1=O", "activity change, negative = inhibition": "inconclusive: -5.98%"}, {"compound": "O=C1OCC2=C1C(c1ccc(F)cc1)c1cc3c(cc1N2)OCCO3", "note": "(stereo not drawn)", "Potency": "inconclusive: 0.1 µM [falling, full curve, poor fit]"}, {"compound": "Cc1cc(C)n2nc(C(=O)NCCc3ccccc3)nc2n1", "Potency": "inconclusive: 20.6 µM [falling, single point]"}, {"compound": "O=C(NNC(=O)c1cc(O)c(O)c(O)c1)NC1CCCCC1", "activity change, negative = inhibition": "inactive: -5.09%"}, {"compound": "CCCn1c(N)c(Sc2ccccc2[N+](=O)[O-])c(=O)n(CCC)c1=O", "activity change, negative = inhibition": "inactive: 1%"}, {"compound": "CC(=O)c1c(C)[nH]c(C(=O)COC(=O)Cc2ccccc2F)c1C", "activity change, negative = inhibition": "inconclusive: -0.824%"}, {"compound": "Cc1ccc(CNC(=O)c2ccccc2NS(C)(=O)=O)cc1", "activity change, negative = inhibition": "inactive: 1.83%"}, {"compound": "Oc1ccc(/C=N/Nc2nc(N3CCCCCC3)nc(N3CCCCCC3)n2)c(O)c1", "activity change, negative = inhibition": "inconclusive: 4.4%"}, {"compound": "NC1=NC[C@@H](Cc2ccc(O)cc2)N1CCc1cccc2ccccc12", "activity change, negative = inhibition": "inconclusive: -6.76%"}, {"compound": "CC(C)[n+]1ccn(C2=C([O-])c3ccccc3C(=O)/C2=N\\S(=O)(=O)c2ccccc2)c1", "activity change, negative = inhibition": "inconclusive: 24.7%"}, {"compound": "CN(Cc1ccccc1)C(=O)c1[nH]cnc1C(=O)Nc1nccs1", "activity change, negative = inhibition": "inconclusive: 11.9%"}, {"compound": "COc1ccc(NC(=O)c2ccc(NC(=O)CSc3nc(N)cc(=O)[nH]3)cc2)cc1", "activity change, negative = inhibition": "inactive: -18.9%"}, {"compound": "CCC(=O)Oc1ccc2c(C)cc(=O)oc2c1C", "activity change, negative = inhibition": "inconclusive: 2.21%"}, {"compound": "Cc1cccnc1NC1OC(=O)c2ccccc21", "note": "(stereo not drawn)", "activity change, negative = inhibition": "inconclusive: 24.8%"}, {"compound": "COc1ccc(NC(=O)CN2CCCN(S(=O)(=O)c3ccc(F)cc3)CC2)cc1", "Potency": "inconclusive: 20.6 µM [falling, partial curve, poor fit]"}, {"compound": "CC(=O)c1ccc(N2CCN(C(=O)COc3ccc(F)cc3)CC2)c(F)c1", "activity change, negative = inhibition": "inactive: 3.54%"}, {"compound": "CC(=O)c1ccc(NC(=O)c2cc3nc4c(c(C(F)(F)F)n3n2)CCCC4)cc1", "activity change, negative = inhibition": "inconclusive: 8.58%"}, {"compound": "Cc1ccc(OCCC(=O)OCC(=O)C(C)(C)C)cc1", "activity change, negative = inhibition": "inconclusive: 13%"}, {"compound": "Cc1cc(C)c(OCCN(C)C)c(Cl)c1", "activity change, negative = inhibition": "inactive: -1.84%"}, {"compound": "COc1cccc(C2=NOC(C(=O)NCc3ccccc3)C2)c1", "note": "(stereo not drawn)", "Potency": "inconclusive: 11.2 µM [falling, partial curve]"}, {"compound": "COC(=O)c1ccc2c(=O)n(CCCCCC(=O)N3CCN(c4ccc(OC)cc4)CC3)c(=O)[nH]c2c1", "activity change, negative = inhibition": "inconclusive: 10.1%"}, {"compound": "COc1cccc(N(C(=O)c2nc3nccc(C)n3n2)c2nc3ccccc3s2)c1", "activity change, negative = inhibition": "inconclusive: -23.9%"}, {"compound": "COc1ccc(/C=C2\\SC(=S)N(CCCC(=O)Nc3cc(C)on3)C2=O)cc1OC", "Potency": "inconclusive: 35.5 µM [rising, single point]"}, {"compound": "Cc1c(O)ccc(-c2[nH]ncc2-c2nc3ccccc3s2)c1O", "activity change, negative = inhibition": "inconclusive: -28.7%"}, {"compound": "Cc1c(CN2CCC(C)CC2)c(=O)n(-c2ccccc2)n1C", "activity change, negative = inhibition": "inconclusive: -0.144%"}, {"compound": "COc1cccc(N=c2oc3c(C)ncc(CO)c3cc2C(N)=O)c1", "Potency": "inconclusive: 0.316 µM [falling, full curve, poor fit]"}, {"compound": "Cc1noc(C)c1COc1ccc(C(=O)OCC(=O)Nc2ccc3ccccc3c2)cc1", "activity change, negative = inhibition": "inconclusive: 3.84%"}, {"compound": "CC1CCN(S(=O)(=O)c2ccc(C(=O)OC(C)C(=O)N(C)C3CCCCC3)cc2)CC1", "note": "(stereo not drawn)", "activity change, negative = inhibition": "inactive: 4.03%"}, {"compound": "Cc1[nH]c2ccccc2c1/C=C(\\C#N)S(=O)(=O)c1ccccc1", "activity change, negative = inhibition": "inconclusive: 2.31%"}, {"compound": "O=C(Nc1ccccc1)Oc1cccc(Br)c1", "Potency": "inconclusive: 35.5 µM [falling, single point]"}, {"compound": "CCOC(=O)C1CCCCN1C(=O)c1oc2c(Cl)cc(C)cc2c1C", "note": "(stereo not drawn)", "activity change, negative = inhibition": "inconclusive: 1.97%"}, {"compound": "N/C(=N\\OC(=O)COc1ccc2ccccc2c1Br)c1ccccn1", "Potency": "inconclusive: 25.1 µM [falling, single point]"}, {"compound": "Cc1cc(C(=O)N2CCCCCC2)cs1", "activity change, negative = inhibition": "inconclusive: 8.14%"}, {"compound": "Cc1ccc(CN(C(=O)c2csnn2)C(C(=O)NC2CCCC2)c2ccccn2)cc1", "note": "(stereo not drawn)", "activity change, negative = inhibition": "inactive: -0.0079%"}, {"compound": "OCCN(CC(O)COc1ccccc1)CC(O)Cn1ccc2ccccc21", "note": "(stereo not drawn)", "activity change, negative = inhibition": "inconclusive: -16.8%"}, {"compound": "COC(=O)c1[nH]c2cc(OC)c(OC)cc2c1NC(=O)Oc1ccccc1", "activity change, negative = inhibition": "inconclusive: 17.5%"}, {"compound": "C/C=C(/C)C(=O)O[C@@H]1c2cc3c(c4c2[C@@]2(CO4)C(=O)C(OC)=C(OC)C=C2C[C@@H](C)[C@H]1C)OCO3", "activity change, negative = inhibition": "inconclusive: -2.62%"}, {"compound": "N#Cc1c(SCC(=O)Nc2nccs2)nc2c(c1-c1ccco1)CCCC2", "Potency": "inconclusive: 16.4 µM [rising, partial curve, poor fit]"}, {"compound": "CCOC(=O)Cc1nnc(NC(=O)C2CCCCC2)s1", "activity change, negative = inhibition": "inconclusive: 3.56%"}, {"compound": "CCn1ccc(C(=O)Nc2ccsc2C(=O)OC)n1", "activity change, negative = inhibition": "inconclusive: -8.71%"}, {"compound": "O=C1[C@@H]2Cc3ccccc3CN2C(=O)N1c1cccc(F)c1", "activity change, negative = inhibition": "inconclusive: 0.124%"}, {"compound": "CCCn1ccc2c(OCC(=O)NCc3ccccc3Cl)cccc2c1=O", "Potency": "inconclusive: 5.01 µM [falling, partial curve]"}, {"compound": "O=C(CSc1nc2ccccc2s1)CSc1nc2ccccc2s1", "activity change, negative = inhibition": "inconclusive: 16.6%"}, {"compound": "CC(=O)NC1(c2ccccc2)CCN(c2cc(C)nc(-c3ccccc3)n2)CC1", "Potency": "inconclusive: 14.1 µM [falling, single point]"}, {"compound": "CN(CC1CCCO1)S(=O)(=O)c1ccc(C(=O)Nc2nc3cc4c(cc3s2)OCO4)cc1", "note": "(stereo not drawn)", "Potency": "inconclusive: 0.398 µM [rising, full curve, poor fit]"}, {"compound": "CCS(=O)(=O)c1nc(S(=O)(=O)c2ccc(Cl)cc2)c(NCc2ccccn2)s1", "activity change, negative = inhibition": "inconclusive: -24.6%"}, {"compound": "NNC(=O)CSc1c(-c2cccs2)[nH]c2ccccc12", "Potency": "inconclusive: 1.16 µM [falling, full curve, poor fit]"}, {"compound": "Cc1cc2c(c(=O)o1)C(C(C)C)C(C#N)=C(N)O2", "note": "(stereo not drawn)", "activity change, negative = inhibition": "inactive: -0.0981%"}, {"compound": "Nc1c(Cl)ncnc1N/N=C/c1ccc2ccccc2n1", "Potency": "inconclusive: 18.4 µM [falling, single point]"}, {"compound": "Cc1nnc2nc(-c3ccccc3)nc(-c3ccccc3)n12", "activity change, negative = inhibition": "inconclusive: 1.25%"}, {"compound": "COc1ccc(CCN(C)C(=S)NC(=O)c2ccc(F)cc2Cl)cc1OC", "Potency": "inconclusive: 15.8 µM [falling, partial curve, poor fit]"}, {"compound": "CC(C)C(=O)NC(c1ccccc1)c1cc([N+](=O)[O-])c2cccnc2c1O", "note": "(stereo not drawn)", "activity change, negative = inhibition": "inactive: 8.1%"}, {"compound": "CCOc1ccc(C2=CSC3=NCCN23)cc1[N+](=O)[O-]", "Potency": "inconclusive: 15.8 µM [falling, partial curve, poor fit]"}, {"compound": "COc1cccc(/C=N/Nc2ncnc(N)c2[N+](=O)[O-])c1OC", "Potency": "inconclusive: 4.61 µM [falling, partial curve, poor fit]"}, {"compound": "Cc1ccc2nc(SCC(=O)Nc3ccccc3N3CCOCC3)c(C#N)cc2c1", "activity change, negative = inhibition": "inconclusive: -3.67%"}, {"compound": "CCc1cc(C(=O)Nc2ccc(C)cc2Br)cs1", "activity change, negative = inhibition": "inconclusive: 15.2%"}, {"compound": "O=[N+]([O-])c1cc(C(F)(F)F)cc([N+](=O)[O-])c1NCCNC(=S)Nc1ccc(Cl)c(Cl)c1", "activity change, negative = inhibition": "inconclusive: 33.9%"}, {"compound": "COc1cccc(CNC(=O)C2=Cc3cccc(OC)c3OC2)c1", "Potency": "inconclusive: 8.91 µM [falling, partial curve]"}, {"compound": "CC(=O)c1cccc(NC(c2ccc(F)cc2)c2nnc(-c3ccccc3)o2)c1", "note": "(stereo not drawn)", "activity change, negative = inhibition": "inconclusive: -18.3%"}, {"compound": "O=c1ccn(-c2cccc(C(F)(F)F)c2)nc1-c1ccn(-c2ccccc2)n1", "Potency": "inconclusive: 29.1 µM [falling, single point]"}, {"compound": "c1ccc(-c2nnc(N3CCN(c4ccccn4)CC3)c3ccccc23)cc1", "activity change, negative = inhibition": "inactive: 3.5%"}, {"compound": "Nc1cc(C(=O)OCC(=O)N2CCOCC2)ccc1Cl", "Potency": "inconclusive: 11.2 µM [falling, partial curve]"}, {"compound": "c1ccc(-c2csc(N3CCOCC3)n2)cc1", "activity change, negative = inhibition": "inconclusive: 10.8%"}, {"compound": "COc1ccccc1CC(=O)Nc1cccc2ccccc12", "activity change, negative = inhibition": "inconclusive: 1.01%"}, {"compound": "CS(=O)(=O)c1ccccc1C(=O)Nc1cc2c(cc1C(=O)O)OCCCO2", "Potency": "inconclusive: 35.5 µM [falling, partial curve, poor fit]"}, {"compound": "CCCCSc1nc(C)cc(SCC(=O)N/N=C/c2cccc(OC)c2O)n1", "Potency": "inconclusive: 12.6 µM [falling, partial curve]"}, {"compound": "CCCc1cc(C(=O)Nc2ccc(Cl)cn2)cs1", "Potency": "inconclusive: 35.5 µM [falling, single point]"}, {"compound": "Cc1nnsc1C(=O)N/N=C/c1ccc2ccccc2c1O", "activity change, negative = inhibition": "inactive: -0.236%"}, {"compound": "COC(=O)c1sc(S(=O)(=O)Nc2ccc(Br)cc2)c(C(=O)OC)c1C", "activity change, negative = inhibition": "inconclusive: 9.26%"}, {"compound": "CCC1CO/C(=C(\\C(=C(Cl)Cl)N2CCOCC2)[N+](=O)[O-])N1", "note": "(stereo not drawn)", "activity change, negative = inhibition": "inconclusive: 18.7%"}, {"compound": "CCN(CC)CCNC(=O)Cc1nn(Cc2ccccc2)c(=O)c2ccccc12", "activity change, negative = inhibition": "inconclusive: -21.5%"}, {"compound": "CN(C)C(=O)NC(O)C(Cl)Cl", "note": "(stereo not drawn)", "Potency": "inconclusive: 6.51 µM [rising, partial curve, poor fit]"}, {"compound": "CCOC(=O)c1ccc(NC(=S)N2CCCC2)cc1", "activity change, negative = inhibition": "inconclusive: 10.5%"}, {"compound": "COc1ccc(/C=N/OCC(=O)Nc2nc3ccccc3s2)cc1", "activity change, negative = inhibition": "inconclusive: -0.332%"}]}]}
